# Reference: patent publication US20250345292A1, “COMBINATION OF ALBUTEROL AND BUDESONIDE FOR THE TREATMENT OF ASTHMA” (priority 2022, published 2025)
# The amount applied is not stated for every result.
# Test system: patients with uncontrolled moderate-to-severe asthma
# Assay: Phase 3 clinical trial, as-needed albuterol-budesonide fixed dose combination vs. albuterol alone: efficacy and study medication use
# Format: in vivo, human
compound,measurement,setting,value
"CC(C)(C)NCC(O)c1ccc(O)c(CO)c1 (centres unmarked) [albuterol 180-μg, 4-(2-(tert-butylamino)-1-hydroxyethyl)-2-(hydroxymethyl) phenol]",Average daily as-needed use,"human, in vivo",2.8 inhalations per day
same,doses of study medication per day,one dose = 2 inhalations,~1.4 doses of study medication per day
